Test results: PMC7819943, “Rice protein-binding microarrays: a tool to detect cis-acting elements near promoter regions in rice”
The list shows a part of the results.

target: T1, OsSMF1 (Oryza sativa, UniProt Q6ZLB0 1-436); assay: protein-binding microarray (RPBM); PBS, 2% BSA, 51.3 ng/ul salmon testes DNA, 50 uM zinc acetate, 200 nM TF, 25 C, 1 h; high values mean tight binding; conditions: protein: recombinant; tags: N-terminal polyhistidine and DsRed monomer fusion (pET32a); chain copies: 2; label: CyDye5-dUTP incorporated in the synthesized complementary strand; 3' TTTTT single-stranded linker to array surface; dsDNA, one strand shown
T1 sequence: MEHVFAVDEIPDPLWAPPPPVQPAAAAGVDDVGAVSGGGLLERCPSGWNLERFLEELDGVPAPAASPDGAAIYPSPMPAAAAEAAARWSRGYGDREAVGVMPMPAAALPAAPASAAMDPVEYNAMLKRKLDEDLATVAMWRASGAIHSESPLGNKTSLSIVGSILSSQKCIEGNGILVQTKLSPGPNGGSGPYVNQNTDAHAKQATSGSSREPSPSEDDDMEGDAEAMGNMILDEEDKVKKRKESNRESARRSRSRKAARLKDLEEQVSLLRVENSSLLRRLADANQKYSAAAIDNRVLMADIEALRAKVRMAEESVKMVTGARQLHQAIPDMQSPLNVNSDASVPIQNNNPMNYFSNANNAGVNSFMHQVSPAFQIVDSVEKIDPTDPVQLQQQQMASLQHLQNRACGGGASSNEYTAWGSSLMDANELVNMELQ
How it was run: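 For the binding signal, per-feature fluorescence intensity was read in arbitrary units on an Axon 4000B scanner. Before scanning, a 2% BSA-blocked custom Agilent array made double-stranded with Cy5-dUTP was washed after 1 h at 25 °C with 200 nM protein and 50 µM zinc acetate. The proteins were Ni–NTA-purified transcription factors with N-terminal polyhistidine and DsRed fusions, expressed in E. coli BL21-CodonPlus.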

Row | Sequence | binding signal
1 | CCAAGATCCTGATAAAGTTCAGTCATCACCATCTCTATAGCGGAGTCACCTAGTGCAG | 4340 fluorescence intensity (a.u.)
2 | AGGTTGGCATTGCAACGTCATCGATGATGAAATCAAACGCCGGAGTCACCTAGTGCAG | 9370 fluorescence intensity (a.u.)
3 | CTGGTAGGATTGCTGCTTGCTTTGCCTTCACGTCATTATCCGGAGTCACCTAGTGCAG | 3350 fluorescence intensity (a.u.)
4 | GGCTATCGGTGGGTGGGTGGGGTGTACTACTCCCCTATAACGGAGTCACCTAGTGCAG | 5100 fluorescence intensity (a.u.)
5 | CGCTGGGTCACCAACCTTCGCTGCCACATCGTCTCTCCTCCGGAGTCACCTAGTGCAG | 5900 fluorescence intensity (a.u.)
6 | CAGGGGAGGGGATCCTGGTGAGCATCCACATCACATCCTCCGGAGTCACCTAGTGCAG | 5610 fluorescence intensity (a.u.)
7 | AGAGAGGGAAGGGAGGGAGGGAGGGAGGAGGGAGAGATCTCGGAGTCACCTAGTGCAG | 6770 fluorescence intensity (a.u.)
8 | ATTGAAAATTTTGTTTGAGTGCACATCGTGTGCATTTTATCGGAGTCACCTAGTGCAG | 8920 fluorescence intensity (a.u.)
9 | CCTCTTGCCACTACTATTTCTAGTAGTCGTGTATCATCATCGGAGTCACCTAGTGCAG | 4340 fluorescence intensity (a.u.)
10 | ACCGGGTCGCGCGCGTCGTTGAAACGTCACACCTAGCTAACGGAGTCACCTAGTGCAG | 4280 fluorescence intensity (a.u.)
11 | CCGGCCCAATACAACCCGTTCGTGGCAACCCTATTCCAGCCGGAGTCACCTAGTGCAG | 4850 fluorescence intensity (a.u.)
12 | CGATTGCCACATCTACACCTACGTATACAAATACACAAATCGGAGTCACCTAGTGCAG | 5330 fluorescence intensity (a.u.)
13 | GCGAACAGTGCACACGTCCGCCACTTCGTCCACTCGCGCCCGGAGTCACCTAGTGCAG | 4700 fluorescence intensity (a.u.)
14 | GAAACCCTAGCCGCCACCACTCCCGTGACGGTGCGTCGCTCGGAGTCACCTAGTGCAG | 3650 fluorescence intensity (a.u.)
15 | CATTAGGCCCACGTGTCATTGACCCAAGTCAGAGGTTAATCGGAGTCACCTAGTGCAG | 9260 fluorescence intensity (a.u.)
16 | GTATTTGTTGTCATCGTTTTCTTCGTGTCCTTTCATGATCCGGAGTCACCTAGTGCAG | 4340 fluorescence intensity (a.u.)
17 | ATAAATCGATTGCGCAACTGACGTACGGAACATATATATTCGGAGTCACCTAGTGCAG | 7460 fluorescence intensity (a.u.)
18 | TGTTGACACTTTGGTTTGTTGGTTGGTGACGCGTTGTTGTCGGAGTCACCTAGTGCAG | 5460 fluorescence intensity (a.u.)
19 | ATCCAAGTCGCCGTGGTCGTTTGGGCCTACGTGGGCTTAGCGGAGTCACCTAGTGCAG | 4210 fluorescence intensity (a.u.)
20 | TTGCACCAATCATGATTGCGCATCGCTGACCGAATGGTTTCGGAGTCACCTAGTGCAG | 3940 fluorescence intensity (a.u.)
21 | CTACGCCCACCCATCCACTCGCACCCCGCGCCGCACCAACCGGAGTCACCTAGTGCAG | 24500 fluorescence intensity (a.u.)

Reformatted: entries from further up.
GGCTATCGGTGGGTGGGTGGGGTGTACTACTCCCCTATAACGGAGTCACCTAGTGCAG
  binding signal: 5100 fluorescence intensity (a.u.)
CGCTGGGTCACCAACCTTCGCTGCCACATCGTCTCTCCTCCGGAGTCACCTAGTGCAG
  binding signal: 5900 fluorescence intensity (a.u.)
CAGGGGAGGGGATCCTGGTGAGCATCCACATCACATCCTCCGGAGTCACCTAGTGCAG
  binding signal: 5610 fluorescence intensity (a.u.)

Later entries:

Row | Sequence | binding signal
22 | CTTTTGATCCACGTTTGAACTATATATTCACATAATACAACGGAGTCACCTAGTGCAG | 3410 fluorescence intensity (a.u.)
23 | GTTCGCCATTGCCACCTCACTGCTCACGCTACCGCCTCTACGGAGTCACCTAGTGCAG | 5080 fluorescence intensity (a.u.)
24 | AAATTGGGTGCCATGTCAGTAATTTTATGATGTGGCATGACGGAGTCACCTAGTGCAG | 14200 fluorescence intensity (a.u.)
25 | CGCAGATTCCTCCCTCCGTCGATCGCCCCTTCATCACCCACGGAGTCACCTAGTGCAG | 3280 fluorescence intensity (a.u.)
26 | CGCCCCGCTGCTCGTCGAGCAAAACGTCTCGCCCTCTCCACGGAGTCACCTAGTGCAG | 5540 fluorescence intensity (a.u.)
27 | TGTTTATGAAGTGACATGTCACATATTAATCTATCATACTCGGAGTCACCTAGTGCAG | 3900 fluorescence intensity (a.u.)
28 | CACGAGCACGACACGACACGTTATCCATCCCGCCGCCGAACGGAGTCACCTAGTGCAG | 4650 fluorescence intensity (a.u.)
29 | TCGCCGATGGCCACGGCCACTACCCACCAGTCGTCATCATCGGAGTCACCTAGTGCAG | 4710 fluorescence intensity (a.u.)
30 | CCGCCACGTAGGTACCACGTCAACGCCACGTGTAACAAAGCGGAGTCACCTAGTGCAG | 37100 fluorescence intensity (a.u.)
31 | CAAGTTGTTTAGGGCTCTTTTGGAACGCATGATTCTGAAACGGAGTCACCTAGTGCAG | 7240 fluorescence intensity (a.u.)
32 | CTCCATCACTGCGCCACATGCAGCCTGCCGTTTCGAAAACCGGAGTCACCTAGTGCAG | 3280 fluorescence intensity (a.u.)
33 | TTTACAAATTTTGTAAGGTGACGCTGACACATGAAACCAACGGAGTCACCTAGTGCAG | 5790 fluorescence intensity (a.u.)
34 | GCCACCTAAGCGACACGTCGACGACACGTGGGACGAAGACCGGAGTCACCTAGTGCAG | 20600 fluorescence intensity (a.u.)
35 | TCCATCAATGCAACTAACGGACGTGTCCTCTCTCGTCCACCGGAGTCACCTAGTGCAG | 4180 fluorescence intensity (a.u.)
36 | GTTGTTAGTGTATGTGTAAGCCAAATTAATCATATTGAACCGGAGTCACCTAGTGCAG | 3240 fluorescence intensity (a.u.)
37 | CACGACCATCTCGGCACACGTCGCCTTCCACCTTATCGTCCGGAGTCACCTAGTGCAG | 3530 fluorescence intensity (a.u.)
38 | TAAACGTTGTCCTACGTGGCGACTGACACATCGGTCCCACCGGAGTCACCTAGTGCAG | 21600 fluorescence intensity (a.u.)
39 | TTGCCGTGCACCCGGCACGCCCACGTAGGCCGGAGCCGCCCGGAGTCACCTAGTGCAG | 3680 fluorescence intensity (a.u.)
40 | CCGGCCGGTGACATGGGCGTTGCTCCTACTGCCACTTCGGCGGAGTCACCTAGTGCAG | 4290 fluorescence intensity (a.u.)
41 | AATCCAGTTTCCATTCACTCAGCTGGTCATATTCTATGTTCGGAGTCACCTAGTGCAG | 3340 fluorescence intensity (a.u.)
42 | CCAATCCTTTAAAATTCCTATGGAATGGGTAATCCTATGCCGGAGTCACCTAGTGCAG | 3680 fluorescence intensity (a.u.)
